Results on three molecules are retold here after patent US20140212427A1.

Amino acid sequences for entries named in this document (tags omitted). A change or cut given only in a name is not applied to a line headed by its entry.
UniProt P27918: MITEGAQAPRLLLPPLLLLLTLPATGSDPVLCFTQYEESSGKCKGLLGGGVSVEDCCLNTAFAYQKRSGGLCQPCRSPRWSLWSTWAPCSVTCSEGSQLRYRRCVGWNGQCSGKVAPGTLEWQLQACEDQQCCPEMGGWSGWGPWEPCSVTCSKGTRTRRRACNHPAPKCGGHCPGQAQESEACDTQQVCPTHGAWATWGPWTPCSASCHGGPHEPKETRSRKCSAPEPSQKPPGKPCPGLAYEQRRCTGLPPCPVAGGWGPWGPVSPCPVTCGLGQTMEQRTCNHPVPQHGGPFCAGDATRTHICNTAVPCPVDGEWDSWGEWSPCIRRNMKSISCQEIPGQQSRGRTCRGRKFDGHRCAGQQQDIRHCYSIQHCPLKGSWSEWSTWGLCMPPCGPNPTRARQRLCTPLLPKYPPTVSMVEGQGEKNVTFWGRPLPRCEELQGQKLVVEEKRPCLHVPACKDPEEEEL

No constants are given. Whether binding was seen depends on the method and setting. Some binding calls cover weakened binding; strength is not graded here.

Assay [1] has as its target human properdin deletion mutant dTSR0 (human) (UniProt P27918). Nature of the assay: ELISA with CHO cell lysates of properdin deletion mutants (FIG. 6).
Assay [2] addresses human properdin (human) (UniProt P27918). Nature of the assay: ELISA of culture medium of transfected CHO clones on human properdin.

B1: mAb 19.1 (antibody, V domains shown)
VH: QVQLKQSGPGLVQPSQSLSISCTVSGFSLTTYGVHWVRQSPGKGLEWLGVIWSGGDTDYNASFISRLRINKDTSKSQVFFKMNSLQADDTAYYCARNKDYYTNYDFTMDYWGQGTSVTVSS
VL: NIMMTQSPSSLAVSAGEKVTMSCKSSQSVLYSSNQKNFLAWYQQKPGQSPKLLIYWASTRESGVPDRFTGSGSGTDFILTINSVQVEDQAVYYCHQYLSSYTFGGGTKLEIK
B1: the binding entry in assay [1] is reported as “binds”.

B2: chimeric 19.1 mAb (antibody, human IgG4 S228P, kappa, V domains shown)
VH: QVQLKQSGPGLVQPSQSLSISCTVSGFSLTTYGVHWVRQSPGKGLEWLGVIWSGGDTDYNASFISRLRINKDTSKSQVFFKMNSLQADDTAYYCARNKDYYTNYDFTMDYWGQGTSVTVSS
VL: NIMMTQSPSSLAVSAGEKVTMSCKSSQSVLYSSNQKNFLAWYQQKPGQSPKLLIYWASTRESGVPDRFTGSGSGTDFILTINSVQVEDQAVYYCHQYLSSYTFGGGTKLEIKT
In the case of B2, the binding result in assay [2] is on record as “binds”.

B3: mAb 25 (antibody, V domains shown)
VH: QVQLLQSGAEVMKPGASVTLSCKAIGYTFIDYWIEWIKQRPGHGLEWIGEIFPGSGTINHNEKFKDKASFSAHSSSNTAYMQLSRLTSEDSAIYYCAREGLDYWGQGTTLTVSS
VL: QIVLTQSPAIMSASPGERVTMTCSASSSVSYIYWYQQKSGTSPKRWIFDTSTLASGVPTRFSGSGSGTSYSLTISSMETEDAATYYCQQWSRNPFTFGSGTKLEIK
For B3, the binding result in assay [1] is given as “binds”.
